Experimental data: PubChem BioAssay AID504774 (Drosophila RNAi Screening Center, 2011)

Test: 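Knock-downs that shift viability of MMS-exposed cells relative to untreated ones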 (primary screen)
Cells: Drosophila Kc167 cells
Reagent: long dsRNA against Drosophila genes, about 0.25 µg dsRNA per well
Duration: about 6 days: 3 days knock-down, then 3 days with or without MMS
Conditions: methyl methanesulphonate 0.004% (w/v) for 3 days after knock-down
Read-out: 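Viability in wells given MMS, read as ATP luminescence, normalised by quantiles plate by plate and averaged across replicates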
Scale: mean viability with MMS: higher = more surviving cells after MMS
The deposit covers about 23,000 reagents; this is a random part of those that have a named target and a result. 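Values are quantile-normalised luminescence on an arbitrary scale; higher means more cells surviving MMS.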 Reagents against one gene are numbered here. Further read-outs or replicates are left out here.

For SCOT the deposit lists mean viability with MMS 3.55e6.
Smyd3 scored mean viability with MMS 3.52e6.
rictor gave mean viability with MMS 3.61e6.
With knock-down of PheRS-m the results were mean viability with MMS 3.67e6.
LS2 showed mean viability with MMS 3.51e6.
With knock-down of rg #1, the record shows mean viability with MMS 3.40e6.
rg #2 gave mean viability with MMS 3.62e6.
Knock-down of rg #3 came out at: mean viability with MMS 3.48e6.

2 entries from above, set out differently:
{"gene": "rg", "reagent no.": 1, "mean viability with MMS": 3.40e6}
{"gene": "rg", "reagent no.": 2, "mean viability with MMS": 3.62e6}

The results go on.
Depletion of scny #1 resulted in: mean viability with MMS 3.23e6.
For scny #2, the values are mean viability with MMS 3.21e6.
Against scny #3 the deposit lists mean viability with MMS 3.19e6.
After knock-down of e(r), the record shows mean viability with MMS 3.64e6.
With knock-down of Ssl, the screen gave mean viability with MMS 3.53e6.
jus #1 scored mean viability with MMS 3.13e6.
For jus #2, the entry reads mean viability with MMS 3.59e6.
jus #3 showed mean viability with MMS 3.48e6.
After knock-down of Pcif1 the results were mean viability with MMS 3.46e6.
For CG7872 the deposit lists mean viability with MMS 3.60e6.
With knock-down of klg #1 the results were mean viability with MMS 3.46e6.
For klg #2, the entry reads mean viability with MMS 3.49e6.
Depletion of CG12123 gave: mean viability with MMS 3.75e6.
For CG31139, the entry reads mean viability with MMS 3.65e6.
side-VII showed mean viability with MMS 3.81e6.
For unc-119, the entry reads mean viability with MMS 3.56e6.
